The assay has as its system AK4 lymphoid leukemia ip, C3AKF1 mice, survival. Description: NCI In Vivo Anticancer Drug Screen. Data for tumor model AK4 Lymphoid Leukemia (intraperitoneal) in C3AKF1 (CHKRF1) mice. Conditions: T/C endpoint: median survival time, schedule: Q01DX010 (ip), vehicle: saline, higher T/C = longer survival. The protocol:
The antitumor activity of compounds was measured in mice bearing transplantable tumors. Survival or tumor size were measured and the results are expressed as the measurement made in the treated group (T) divided by the measurement made in the vehicle treated control group (C). The tumor model used in this assay is AK4 Lymphoid Leukemia (intraperitoneal) in C3AKF1 (CHKRF1) mice

The list is a part of this screen's results and no random one: it gathers some chemical classes. Other doses and runs of a compound may be missing. T/C is the treated group as % of the vehicle group. For survival time, this PubChem deposit counts one and a half times the control or more as active, and values a quarter to a half above the control carry no call in these data; other NCI protocols may use other cut-offs. Some entries show no survivor count and are marked so; the dose need not have been tolerated. Schedule codes are those of the source, read here as Q, the interval in days (D) or hours (H), X, the number of doses. Some entries hold several experiments; the results are listed from low to high.

As for `CN(CCCl)CCCl`, the T/C is, setting by setting: (dose: 0.13 mg/kg/injection) 125 % of control [survivor count not shown]; (dose: 0.25 mg/kg/injection) 131 [survivor count not shown] and 150 % of control [survivor count not shown]; (dose: 0.5 mg/kg/injection) 125 [survivor count not shown] and 135 % of control [survivor count not shown]; (dose: 1.0 mg/kg/injection) 87 [survivor count not shown] and 128 % of control [survivor count not shown].

The values above are taken from PubChem BioAssay AID236 (DTP/NCI, 2004).
